According to patent publication US10647700B2, “EZH2 inhibitor and use thereof” (TARAPEUTICS SCIENCE INC., priority 2017, dated 2020):

System: H3K27m3 methylation in Pfeiffer cells
Assay: Western Blot of H3K27m3 methylation in Pfeiffer cells
Assay type: cell-based
Settings: Homo sapiens, 72 hours treatment, H3K27m3 methylation by Western Blot
Procedure: Meanwhile, the inventors further conducted Western Blot with Pfeiffer cells (purchased from ATCC, USA) for verification. […] Effect of compounds on H3K27m3 methylation in cells was assessed.

- IC50: 0.037 µM
Structure (SMILES): CCN(c1cc(-c2ccc(CN3CCOCC3)cc2)cc(C(=O)NCc2c(C)cc(C)[nH]c2=O)c1C)C1CCOCC1 [EPZ6438, reference compound]
